The data set relates to db/db mice. In words: Echocardiography, body and heart weight in db/db mice. To be noted: P7C3 vs vehicle. In kind it is in vivo. The protocol:
Echocardiography. Serial […] echocardiography was conducted under 2-3% isoflurane/oxygen anesthesia using a Visualsonic Vevo 770 system equipped with 30 MHz linear signal transducer (Toronto, Ontario, Canada). The mice were depilated as required for imaging and before placing on a 37° C. heated platform. Echo measurements were taken from at least three different cardiac cycles for each mouse. M-mode imaging from short-axis of the left ventricle (LV), using the papillary muscles for reference, was used to obtain measurements. Fractional shortening (FS %) and ejection fraction (EF %) were calculated as previously described.

For the compound `OC(CNc1ccccc1)Cn1c2ccc(Br)cc2c2cc(Br)ccc21` (centres unmarked) [P7C3, 3,6-Dibromo-a-[(phenylamino)methyl]-9H-carbazole-9-ethanol], the body weight result was “no alterations” and the “left ventricular heart weight” value is given as “no alterations”.
